This passage reports survivor count results from PubChem BioAssay AID248 (DTP/NCI, 2004).

The list shows only some results of the screen, not a fair sample: it is rich in T/C values a quarter to a half above the control, in often repeated tests (any T/C) and in doses without a T/C. Other doses and runs of a compound stand elsewhere. T/C gives the treated animals as a percentage of the vehicle group. Some entries give survivors of the animals treated and no T/C: the source files T/C as zero there, which appears to mark a toxic dose or a test without result, not a measured value. Some survivor counts are full or nearly so, which does not show that the dose was tolerated: survival well below the control is almost never listed, so the zero probably covers shortened survival too. Survivors were counted at the toxicity check, usually on the fifth day, unless a day is given; later deaths do not show. Schedules are NCI's codes, read here as Q, the interval in days (D) or hours (H), X, the number of doses.

The assay deals with L1210 leukemia ip in BDF1 mice, survival T/C. Put plainly: NCI In Vivo Anticancer Drug Screen. Data for tumor model L1210 Leukemia (intraperitoneal) in B6D2F1 (BDF1) mice. To be noted: T/C endpoint: mean survival time, higher T/C = longer survival.

Turning to `COC(=O)C(=CC(Cl)(Cl)Cl)C(=O)OC`, the survivor count runs as follows: (dose: 50.0 mg/kg/injection, schedule: Q01DX009 (ip), vehicle: Klucel (hydroxypropylcellulose) (HPC)) 4 of 6; (dose: 100.0 mg/kg/injection, schedule: Q01DX009 (ip), vehicle: Klucel (hydroxypropylcellulose) (HPC)) 0 of 6; (dose: 200.0 mg/kg/injection, schedule: Q01DX009 (ip), vehicle: Klucel (hydroxypropylcellulose) (HPC)) 0 of 6; (dose: 400.0 mg/kg/injection, schedule: Q01DX001 (ip), vehicle: Klucel (hydroxypropylcellulose) (HPC)) 0 of 6.

On to `c1ccc2c(c1)CCc1ccccc1C2NC1=NCCO1`, for which the survivor count (dose: 100.0 mg/kg/injection, schedule: Q04DX003 (ip), vehicle: saline with Tween-80) is 3 of 6; the survivor count (dose: 200.0 mg/kg/injection, schedule: Q04DX003 (ip), vehicle: saline with Tween-80) is listed as 4 of 6; the survivor count (dose: 400.0 mg/kg/injection, schedule: Q04DX003 (ip), vehicle: saline with Tween-80) is reported as 1 of 6.
